These results are taken from PMC9974511.

The target in this assay is microtubule (polymerized tubulin) (human (endogenous in HEK293)). Nature of the assay: co-sedimentation; microtubule cosedimentation: HEK293 lysate in microtubule-stabilizing buffer (100 mM PIPES pH 6.8, 0.1% NP40, 5 mM MgCl2, 2 mM EGTA, 100 mM NaF, 2 M glycerol), 30 μM Taxol 30 min 37 °C, 12,000 × g 40 min; pellet and supernatant by western blot; with Gcap14 coexpression or Gcap14 ….

Results are given in words; binding and its absence hold for the method and conditions named. In cells and extracts the contact can be indirect. Binding can be weak; no strength is given. Where a sequence is shown, tags or fusion partners need not be part of it.

B1: Flag–Ndel1 (nuclear distribution element nudE-like 1) (protein, UniProt Q9ERR1 1-345)
chain: MDGEDIPDFSSLKEETAYWKELSLKYKQSFQEARDELVEFQEGSRELEAELEAQLVQAEQRNRDLQADNQRLKYEVEALKEKLEHQYAQSYKQVSVLEDDLSQTRAIKEQLHKYVRELEQANDDLERAKRATIVSLEDFEQRLNQAIERNAFLESELDEKESLLVSVQRLKDEARDLRQELAVRERQQEVTRKSAPSSPTLDCEKMDSAVQASLSLPATPVGKGTENSFPSPKAIPNGFGTSPLTPSARISALNIVGDLLRKVGALESKLAACRNFAKDQASRKSYVPGSVNCGVMNSNGPECPRSGRATFFHKGAVNGFDPAPPPPGLGSSRPSSAPGMLPLSV
For the molecule B1, the binding result is “binds”.

B2: endogenous Ndel1 (protein, UniProt Q9GZM8 1-345)
chain: MDGEDIPDFSSLKEETAYWKELSLKYKQSFQEARDELVEFQEGSRELEAELEAQLVQAEQRNRDLQADNQRLKYEVEALKEKLEHQYAQSYKQVSVLEDDLSQTRAIKEQLHKYVRELEQANDDLERAKRATIVSLEDFEQRLNQAIERNAFLESELDEKESLLVSVQRLKDEARDLRQELAVRERQQEVTRKSAPSSPTLDCEKMDSAVQASLSLPATPVGKGTENTFPSPKAIPNGFGTSPLTPSARISALNIVGDLLRKVGALESKLAACRNFAKDQASRKSYISGNVNCGVLNGNGTKFSRSGHTSFFDKGAVNGFDPAPPPPGLGSSRPSSAPGMLPLSV
For the molecule B2, the binding entry is “binds”.
